These are yes or no findings as the source states them, for the method shown. Binding seen in cells or lysates may run through a third protein. Some results given as binding are weak or reduced against the parent protein; the word gives no strength.

By UniProt entry, the sequences of proteins in these tests, tags left out.
UniProt P48431: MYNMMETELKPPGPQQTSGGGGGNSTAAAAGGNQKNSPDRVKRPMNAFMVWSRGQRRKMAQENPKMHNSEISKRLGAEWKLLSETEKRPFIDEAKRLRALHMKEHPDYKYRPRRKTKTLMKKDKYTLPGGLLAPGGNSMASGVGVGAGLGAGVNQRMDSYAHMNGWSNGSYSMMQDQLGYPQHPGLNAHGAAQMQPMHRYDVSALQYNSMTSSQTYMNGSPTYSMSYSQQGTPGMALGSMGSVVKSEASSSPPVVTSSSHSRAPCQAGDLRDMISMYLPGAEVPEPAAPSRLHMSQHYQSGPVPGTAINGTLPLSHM
UniProt Q93009: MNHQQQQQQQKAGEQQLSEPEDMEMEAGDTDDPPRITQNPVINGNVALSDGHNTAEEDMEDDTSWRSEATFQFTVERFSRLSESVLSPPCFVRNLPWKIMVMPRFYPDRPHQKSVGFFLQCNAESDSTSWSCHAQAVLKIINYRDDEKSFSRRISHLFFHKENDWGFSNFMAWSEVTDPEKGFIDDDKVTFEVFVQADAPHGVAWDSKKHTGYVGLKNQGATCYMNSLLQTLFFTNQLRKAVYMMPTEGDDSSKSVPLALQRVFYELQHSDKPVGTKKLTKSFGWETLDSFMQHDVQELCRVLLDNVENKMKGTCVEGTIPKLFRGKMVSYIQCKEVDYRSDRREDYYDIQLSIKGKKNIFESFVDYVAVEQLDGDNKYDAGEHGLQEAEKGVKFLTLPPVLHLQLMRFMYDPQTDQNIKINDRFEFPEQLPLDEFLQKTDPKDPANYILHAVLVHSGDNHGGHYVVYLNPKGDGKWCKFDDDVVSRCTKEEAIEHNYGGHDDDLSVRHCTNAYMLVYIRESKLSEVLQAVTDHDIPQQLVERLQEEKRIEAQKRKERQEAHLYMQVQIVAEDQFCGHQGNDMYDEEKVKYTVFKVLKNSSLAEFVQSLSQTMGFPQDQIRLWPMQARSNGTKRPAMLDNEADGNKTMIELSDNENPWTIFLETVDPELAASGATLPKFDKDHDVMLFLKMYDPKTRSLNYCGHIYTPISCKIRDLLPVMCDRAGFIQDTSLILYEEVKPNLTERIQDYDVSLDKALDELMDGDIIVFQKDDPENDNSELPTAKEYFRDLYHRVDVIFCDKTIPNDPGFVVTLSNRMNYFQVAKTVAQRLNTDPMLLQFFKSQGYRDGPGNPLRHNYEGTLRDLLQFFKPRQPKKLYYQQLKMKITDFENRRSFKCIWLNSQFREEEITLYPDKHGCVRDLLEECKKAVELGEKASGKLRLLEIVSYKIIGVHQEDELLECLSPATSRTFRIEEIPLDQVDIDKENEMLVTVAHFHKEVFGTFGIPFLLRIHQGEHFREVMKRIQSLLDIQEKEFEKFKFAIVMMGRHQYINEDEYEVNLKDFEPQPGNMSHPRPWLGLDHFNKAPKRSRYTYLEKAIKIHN

The target of assay [1] is Flag-SOX2 (human) (UniProt P48431). Nature of the assay: co-IP.
For assay [2], the target named is SOX2 (endogenous) (human (endogenous in GSCs from human GBM)) (UniProt P48431). The experiment in a line: co-IP.

Turning to “HAUSP (Herpesvirus-Associated Ubiquitin-Specific Protease) (from UniProt Q93009 1-1102) (enzyme)”, the binding result in assay [1] and in assay [2] was “binds” throughout.
